For two molecules, binding results are on record in PMC10652021.

By UniProt entry, the sequences of proteins in these tests, tags left out.
UniProt P38432: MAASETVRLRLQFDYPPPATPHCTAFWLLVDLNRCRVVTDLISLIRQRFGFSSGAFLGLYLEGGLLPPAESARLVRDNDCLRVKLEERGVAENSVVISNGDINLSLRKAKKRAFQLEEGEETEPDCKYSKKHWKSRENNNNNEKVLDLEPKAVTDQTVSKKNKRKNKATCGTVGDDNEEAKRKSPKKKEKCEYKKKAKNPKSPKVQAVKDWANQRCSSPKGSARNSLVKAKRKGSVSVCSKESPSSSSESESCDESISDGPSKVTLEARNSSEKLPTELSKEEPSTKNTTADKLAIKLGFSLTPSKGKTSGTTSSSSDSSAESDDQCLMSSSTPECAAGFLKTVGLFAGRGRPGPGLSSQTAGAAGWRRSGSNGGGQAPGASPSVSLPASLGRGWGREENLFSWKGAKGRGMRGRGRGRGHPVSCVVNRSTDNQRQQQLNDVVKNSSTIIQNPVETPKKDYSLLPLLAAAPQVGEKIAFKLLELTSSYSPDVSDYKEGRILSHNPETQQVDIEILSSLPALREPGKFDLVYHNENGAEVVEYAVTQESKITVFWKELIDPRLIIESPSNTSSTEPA
UniProt Q16637: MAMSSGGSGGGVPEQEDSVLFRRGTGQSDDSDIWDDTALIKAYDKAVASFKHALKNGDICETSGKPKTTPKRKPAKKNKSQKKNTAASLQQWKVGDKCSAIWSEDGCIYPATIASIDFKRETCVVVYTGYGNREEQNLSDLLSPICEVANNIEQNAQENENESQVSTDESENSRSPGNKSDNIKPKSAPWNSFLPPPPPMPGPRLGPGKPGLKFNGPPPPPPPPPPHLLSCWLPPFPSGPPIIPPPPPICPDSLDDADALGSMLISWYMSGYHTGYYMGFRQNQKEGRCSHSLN

No constants are given. Whether binding was seen depends on the method and setting. In cells and extracts the contact can be indirect. Some binding calls cover weakened binding; strength is not graded here.

Assay [1] concerns the target T1, Fibrillarin (human (endogenous in MRC5-SV)) (UniProt P22087).
T1 sequence: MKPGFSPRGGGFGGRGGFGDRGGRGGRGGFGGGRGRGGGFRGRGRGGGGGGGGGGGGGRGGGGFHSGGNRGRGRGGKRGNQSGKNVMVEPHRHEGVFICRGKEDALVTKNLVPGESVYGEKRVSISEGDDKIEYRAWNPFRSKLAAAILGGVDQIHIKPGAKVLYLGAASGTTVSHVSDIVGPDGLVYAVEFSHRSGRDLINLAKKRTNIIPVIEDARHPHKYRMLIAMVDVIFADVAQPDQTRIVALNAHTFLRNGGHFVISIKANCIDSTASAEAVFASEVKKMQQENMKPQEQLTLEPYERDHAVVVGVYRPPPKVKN
In words: condition: only in Coilin-depleted cells (siCoilin pool); proximity ligation; Duolink PLA of SMN and FBL on fixed cells depleted of Coilin (siCoilin pool), before and at different times after UV-C.

Assay [2] concerns the target Coilin (human (endogenous in MRC5-SV)) (UniProt P38432). Description: condition: only after UV-C irradiation, during nucleolar reorganization, wild-type cells; proximity ligation; Duolink PLA of SMN and Coilin on fixed wild-type cells at different times after UV-C irradiation (damage-induced nucleolar reorganization).
In assay [3] the target is T1, Fibrillarin (human (endogenous in MRC5-SV)). Description: proximity ligation; Duolink PLA on fixed, permeabilised wild-type cells with primary antibodies against the two endogenous proteins; no UV and different times after 16 J/m2 UV-C; cells transfected with siMock, siFBL or siPRMT1 pools.
Assay [4] addresses GST-SMN (UniProt Q16637). In words: pull-down; GST pull-down: GST-SMN (or GST alone, or SMN TUDOR domain mutants) as bait, FBL from cell extracts, untreated or UV-treated at different time points; FBL found by blot; only the target purified.

In the case of “Survival of Motor Neuron (from UniProt Q16637 1-294)”, the figures for the binding entry in assay [1], in assay [2] and in assay [3] were “no binding”, “no binding” and “binds”, respectively.

B1: Fibrillarin (protein, UniProt P22087 1-321)
chain: T1 sequence
Turning to B1, in assay [4], the binding result is “binds”.
